Experiment [1] addresses ESCRT-I complex protein Tsg101 (tumor susceptibility gene 101) (human (endogenous in HMVEC-d)) (UniProt Q99816). Kind of experiment: co-IP; as a1, the uninfected (mock) serum-starved HMVEC-d cells only; anti-Tsg101 IP, Western blot for the signal molecules. A general note: A western blot detects proteins with antibodies after separation by electrophoresis.
For experiment [2] the target is unchanged. The description is as above. This is another data set of the same source.
Experiment [3] has the same target. Kind of experiment: proximity ligation; Duolink PLA on fixed, permeabilised HMVEC-d cells, uninfected or KSHV infected (30 DNA copies/cell; 10 min or the indicated times), primary antibodies to the two endogenous proteins; signal within 40 nm or less.
The target is the same in experiment [4]. Kind of experiment: co-IP; anti-Tsg101 antibody on 300-500 ug precleared lysate (25 mM Tris-HCl pH 7.5, 150 mM NaCl, 1% NP40, 2 mM EDTA, 10% glycerol) of HMVEC-d cells, mock or KSHV infected (30 DNA copies/cell; 5, 10, 30 min; serum-starved 8 h for Fig 5 and Fig 8), overnight 4°C, protein A or G-Sepharose, Western ….
The target is the same in experiment [5]. Described as above. The source holds these as a separate data set.

Protein sequences, listed by entry. Tags and fused reporters are not part of them. Residues count along the entry.
UniProt Q99816: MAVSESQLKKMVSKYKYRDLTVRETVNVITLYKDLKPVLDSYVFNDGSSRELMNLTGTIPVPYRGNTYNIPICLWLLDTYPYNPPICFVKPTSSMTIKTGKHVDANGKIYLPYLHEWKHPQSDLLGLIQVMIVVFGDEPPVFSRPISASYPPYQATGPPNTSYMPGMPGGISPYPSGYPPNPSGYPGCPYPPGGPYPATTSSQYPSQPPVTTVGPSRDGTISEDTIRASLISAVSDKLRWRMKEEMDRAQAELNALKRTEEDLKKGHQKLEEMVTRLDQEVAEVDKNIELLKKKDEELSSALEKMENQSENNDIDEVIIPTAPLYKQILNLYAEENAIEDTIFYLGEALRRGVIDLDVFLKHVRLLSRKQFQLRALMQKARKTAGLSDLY
UniProt P29317, residues 24-976: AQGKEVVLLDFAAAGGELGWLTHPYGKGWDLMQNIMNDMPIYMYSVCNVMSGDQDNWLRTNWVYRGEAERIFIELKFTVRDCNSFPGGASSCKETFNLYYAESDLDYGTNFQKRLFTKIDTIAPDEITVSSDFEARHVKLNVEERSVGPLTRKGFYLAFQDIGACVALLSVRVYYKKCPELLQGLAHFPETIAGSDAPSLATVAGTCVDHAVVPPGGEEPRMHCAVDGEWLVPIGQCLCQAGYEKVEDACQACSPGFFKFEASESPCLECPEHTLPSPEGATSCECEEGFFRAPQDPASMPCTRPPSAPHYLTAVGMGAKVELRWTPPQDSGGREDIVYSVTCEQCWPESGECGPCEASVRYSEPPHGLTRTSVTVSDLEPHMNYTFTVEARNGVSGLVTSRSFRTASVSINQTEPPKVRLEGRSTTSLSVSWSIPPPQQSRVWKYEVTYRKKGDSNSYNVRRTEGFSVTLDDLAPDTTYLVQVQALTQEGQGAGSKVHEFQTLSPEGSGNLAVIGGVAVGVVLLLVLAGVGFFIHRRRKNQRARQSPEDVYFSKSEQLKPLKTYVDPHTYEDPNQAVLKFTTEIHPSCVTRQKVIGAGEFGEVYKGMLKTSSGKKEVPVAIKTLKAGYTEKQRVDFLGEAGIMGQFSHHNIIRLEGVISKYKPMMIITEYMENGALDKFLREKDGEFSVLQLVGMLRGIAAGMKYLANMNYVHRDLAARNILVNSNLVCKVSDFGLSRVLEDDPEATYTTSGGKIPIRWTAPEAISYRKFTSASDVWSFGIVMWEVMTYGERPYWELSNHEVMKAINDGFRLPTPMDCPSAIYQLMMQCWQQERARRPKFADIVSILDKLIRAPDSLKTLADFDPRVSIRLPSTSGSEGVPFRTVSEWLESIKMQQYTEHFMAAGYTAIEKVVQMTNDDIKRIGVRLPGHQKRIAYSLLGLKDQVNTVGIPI
UniProt Q9NZZ3: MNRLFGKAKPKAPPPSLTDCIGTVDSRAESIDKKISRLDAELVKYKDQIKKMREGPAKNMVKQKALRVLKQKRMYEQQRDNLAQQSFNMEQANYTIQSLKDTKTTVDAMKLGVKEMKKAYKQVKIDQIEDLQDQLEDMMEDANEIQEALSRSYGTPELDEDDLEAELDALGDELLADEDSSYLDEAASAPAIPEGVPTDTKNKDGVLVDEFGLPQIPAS
UniProt P46108: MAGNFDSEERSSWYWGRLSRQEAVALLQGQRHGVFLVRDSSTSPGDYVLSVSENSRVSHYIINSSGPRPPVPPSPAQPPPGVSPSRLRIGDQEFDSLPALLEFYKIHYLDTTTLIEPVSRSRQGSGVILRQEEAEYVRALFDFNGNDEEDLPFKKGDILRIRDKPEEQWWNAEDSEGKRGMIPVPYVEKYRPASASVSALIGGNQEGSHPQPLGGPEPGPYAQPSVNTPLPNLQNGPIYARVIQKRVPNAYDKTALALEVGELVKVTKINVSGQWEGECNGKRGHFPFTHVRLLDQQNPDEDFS
UniProt O14964: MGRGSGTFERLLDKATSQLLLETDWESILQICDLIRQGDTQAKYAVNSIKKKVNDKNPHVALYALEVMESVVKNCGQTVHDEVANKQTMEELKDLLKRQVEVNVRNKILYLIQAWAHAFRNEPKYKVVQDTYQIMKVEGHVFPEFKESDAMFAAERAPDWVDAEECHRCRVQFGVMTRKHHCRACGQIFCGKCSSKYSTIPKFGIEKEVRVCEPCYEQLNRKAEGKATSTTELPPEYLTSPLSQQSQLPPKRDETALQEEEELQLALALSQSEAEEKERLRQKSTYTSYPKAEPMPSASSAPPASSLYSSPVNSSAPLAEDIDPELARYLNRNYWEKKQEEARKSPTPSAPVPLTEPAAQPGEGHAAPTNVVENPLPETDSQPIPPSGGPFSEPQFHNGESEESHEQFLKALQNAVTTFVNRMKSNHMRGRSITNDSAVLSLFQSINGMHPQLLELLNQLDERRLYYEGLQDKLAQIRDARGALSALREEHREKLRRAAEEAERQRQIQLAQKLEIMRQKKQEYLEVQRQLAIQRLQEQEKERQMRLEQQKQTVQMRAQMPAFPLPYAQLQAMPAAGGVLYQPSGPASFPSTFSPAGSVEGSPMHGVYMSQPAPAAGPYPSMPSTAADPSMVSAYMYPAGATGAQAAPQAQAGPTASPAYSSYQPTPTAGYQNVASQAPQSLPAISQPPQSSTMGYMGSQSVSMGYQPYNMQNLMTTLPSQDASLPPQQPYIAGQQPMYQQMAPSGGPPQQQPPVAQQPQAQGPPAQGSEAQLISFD

These are yes or no findings as the source states them, for the method shown. In cells and extracts the contact can be indirect. Some binding calls cover weakened binding; strength is not graded here.

With “Ephrin A2 receptor tyrosine kinase (EphA2R) (from UniProt P29317 24-976)”, the binding entry in experiment [1] is “binds weakly”; in experiment [2] it was “no binding (condition: uninfected cells (without KSHV))”; in experiment [3] it was “binds”; in experiment [4] it was “binds”.
In the case of “ESCRT-III protein CHMP5 (from UniProt Q9NZZ3 1-219)”, the binding result in experiment [3] and in experiment [4] was “binds” each time.
Regarding adaptor Crk (from UniProt P46108 1-304), the binding entry in experiment [3] and in experiment [4] was “binds” each time.
For the molecule “ESCRT-0 protein Hrs (from UniProt O14964 1-777)”, the binding entry in experiment [3] and in experiment [4] was “binds” in each case.

B1: scaffold protein p130Cas (protein, UniProt P56945 1-870)
chain: MNHLNVLAKALYDNVAESPDELSFRKGDIMTVLEQDTQGLDGWWLCSLHGRQGIVPGNRLKILVGMYDKKPAGPGPGPPATPAQPQPGLHAPAPPASQYTPMLPNTYQPQPDSVYLVPTPSKAQQGLYQVPGPSPQFQSPPAKQTSTFSKQTPHHPFPSPATDLYQVPPGPGGPAQDIYQVPPSAGMGHDIYQVPPSMDTRSWEGTKPPAKVVVPTRVGQGYVYEAAQPEQDEYDIPRHLLAPGPQDIYDVPPVRGLLPSQYGQEVYDTPPMAVKGPNGRDPLLEVYDVPPSVEKGLPPSNHHAVYDVPPSVSKDVPDGPLLREETYDVPPAFAKAKPFDPARTPLVLAAPPPDSPPAEDVYDVPPPAPDLYDVPPGLRRPGPGTLYDVPRERVLPPEVADGGVVDSGVYAVPPPAEREAPAEGKRLSASSTGSTRSSQSASSLEVAGPGREPLELEVAVEALARLQQGVSATVAHLLDLAGSAGATGSWRSPSEPQEPLVQDLQAAVAAVQSAVHELLEFARSAVGNAAHTSDRALHAKLSRQLQKMEDVHQTLVAHGQALDAGRGGSGATLEDLDRLVACSRAVPEDAKQLASFLHGNASLLFRRTKATAPGPEGGGTLHPNPTDKTSSIQSRPLPSPPKFTSQDSPDGQYENSEGGWMEDYDYVHLQGKEEFEKTQKELLEKGSITRQGKSQLELQQLKQFERLEQEVSRPIDHDLANWTPAQPLAPGRTGGLGPSDRQLLLFYLEQCEANLTTLTNAVDAFFTAVATNQPPKIFVAHSKFVILSAHKLVFIGDTLSRQAKAADVRSQVTHYSNLLCDLLRGIVATTKAAALQYPSPSAAQDMVERVKELGHSTQQFRRVLGQLAAA
Regarding B1, the binding result in experiment [3] and in experiment [5] was “binds” in each case.

B2: ESCRT-III protein CHMP6 (protein, UniProt Q96FZ7 1-201)
chain: MGNLFGRKKQSRVTEQDKAILQLKQQRDKLRQYQKRIAQQLERERALARQLLRDGRKERAKLLLKKKRYQEQLLDRTENQISSLEAMVQSIEFTQIEMKVMEGLQFGNECLNKMHQVMSIEEVERILDETQEAVEYQRQIDELLAGSFTQEDEDAILEELSAITQEQIELPEVPSEPLPEKIPENVPVKARPRQAELVAAS
B2: the binding entry in experiment [3] and in experiment [5] was “binds” each time.

B3: ESCRT-II protein EAP45 (protein, UniProt Q86VN1 1-386)
chain: MDRFVWTSGLLEINETLVIQQRGVRIYDGEEKIKFDAGTLLLSTHRLIWRDQKNHECCMAILLSQIVFIEEQAAGIGKSAKIVVHLHPAPPNKEPGPFQSSKNSYIKLSFKEHGQIEFYRRLSEEMTQRRWENMPVSQSLQTNRGPQPGRIRAVGIVGIERKLEEKRKETDKNISEAFEDLSKLMIKAKEMVELSKSIANKIKDKQGDITEDETIRFKSYLLSMGIANPVTRETYGSGTQYHMQLAKQLAGILQVPLEERGGIMSLTEVYCLVNRARGMELLSPEDLVNACKMLEALKLPLRLRVFDSGVMVIELQSHKEEEMVASALETVSEKGSLTSEEFAKLVGMSVLLAKERLLLAEKMGHLCRDDSVEGLRFYPNLFMTQS
Consider B3, for which the binding entry in experiment [3] and in experiment [5] was “binds” each time.
